Measured values taken from paper PMC9889916.
No constants are given. Whether binding was seen depends on the method and setting. Binding seen in cells or lysates may run through a third protein. Some binding calls cover weakened binding; strength is not graded here.

Protein sequences, listed by entry. Tags and fused reporters are not part of them. Lines headed by an entry give the natural chain unless they say otherwise; changes in a name come on top. Chains listed by the source or under a name are the forms on record and can include a tag or linker. Residues count along the entry.
UniProt Q9Y6K9: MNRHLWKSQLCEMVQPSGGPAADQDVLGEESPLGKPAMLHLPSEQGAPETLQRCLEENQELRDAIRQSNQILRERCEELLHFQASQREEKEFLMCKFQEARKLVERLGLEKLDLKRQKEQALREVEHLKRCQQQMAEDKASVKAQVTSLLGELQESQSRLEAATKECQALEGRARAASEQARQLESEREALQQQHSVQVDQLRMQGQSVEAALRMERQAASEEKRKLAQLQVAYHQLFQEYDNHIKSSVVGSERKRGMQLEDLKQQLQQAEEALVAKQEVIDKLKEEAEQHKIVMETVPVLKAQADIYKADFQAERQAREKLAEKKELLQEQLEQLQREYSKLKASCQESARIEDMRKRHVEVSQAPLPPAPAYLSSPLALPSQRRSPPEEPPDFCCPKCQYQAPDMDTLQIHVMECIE
HA-tagged WT NEMO: residues 2-419 of Q9Y6K9
HA-tagged Q330X NEMO: residues 2-329 of Q9Y6K9
UniProt Q96EP0: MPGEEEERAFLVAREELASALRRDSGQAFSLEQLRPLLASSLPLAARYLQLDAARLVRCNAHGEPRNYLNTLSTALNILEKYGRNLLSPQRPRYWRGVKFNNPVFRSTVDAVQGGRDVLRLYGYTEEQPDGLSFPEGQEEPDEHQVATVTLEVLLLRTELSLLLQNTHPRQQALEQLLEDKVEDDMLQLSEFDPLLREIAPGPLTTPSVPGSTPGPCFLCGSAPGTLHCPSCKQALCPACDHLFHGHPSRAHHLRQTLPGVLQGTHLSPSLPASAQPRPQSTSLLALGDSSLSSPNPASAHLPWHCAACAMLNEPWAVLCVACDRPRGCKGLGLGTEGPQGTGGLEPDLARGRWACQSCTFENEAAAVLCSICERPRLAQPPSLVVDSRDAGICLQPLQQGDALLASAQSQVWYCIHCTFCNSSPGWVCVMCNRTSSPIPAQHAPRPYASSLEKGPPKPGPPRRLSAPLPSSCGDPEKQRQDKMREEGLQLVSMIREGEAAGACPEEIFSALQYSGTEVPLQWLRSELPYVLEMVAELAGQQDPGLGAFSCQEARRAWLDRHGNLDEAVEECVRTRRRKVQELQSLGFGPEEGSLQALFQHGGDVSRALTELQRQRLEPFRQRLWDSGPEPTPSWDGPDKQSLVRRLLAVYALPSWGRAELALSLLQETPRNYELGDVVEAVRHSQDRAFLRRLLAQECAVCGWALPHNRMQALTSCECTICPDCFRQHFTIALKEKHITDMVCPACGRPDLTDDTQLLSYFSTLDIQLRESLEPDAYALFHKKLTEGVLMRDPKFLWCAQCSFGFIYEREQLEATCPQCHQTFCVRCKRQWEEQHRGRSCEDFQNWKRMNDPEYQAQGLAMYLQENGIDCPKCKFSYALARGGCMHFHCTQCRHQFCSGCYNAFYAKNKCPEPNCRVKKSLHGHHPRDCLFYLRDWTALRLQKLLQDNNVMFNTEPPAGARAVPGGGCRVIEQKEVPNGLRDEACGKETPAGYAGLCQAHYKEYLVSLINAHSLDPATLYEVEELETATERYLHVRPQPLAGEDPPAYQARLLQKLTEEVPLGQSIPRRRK

How the values were obtained:
[1] = target: HA-tagged Q330X NEMO (human) (UniProt Q9Y6K9); assay: co-IP; HA-tagged NEMO precipitated with anti-HA agarose beads (4 h, 4°C) from lysates of transfected HEK293T cells, stimulated with human IL-1β (25 ng/ml, 15 min) or left untreated; lysis and washes in 50 mM HEPES pH 7.4, 150 mM NaCl, 1% Triton, 10% glycerol, 30 mM NEM; immunoblot for IKKβ, HOIP and M1-ubiquitin
[2] = target: HA-tagged WT NEMO (human) (UniProt Q9Y6K9); assay: as above

- binding [1]: no binding
- binding [2]: binds
Substance: HOIP (HOIL-1-interacting protein or RNF31) (from UniProt Q96EP0 1-1072) (enzyme)
